Source: the supplement of paper PMC6078165
± gives the standard deviation of the averaged measurements. Values are relative to the signal before dosing, not to a vehicle control; the signal also falls without drug.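 Labels refer to human fibroblasts, largely primary: uterine (C12385, HUF), lung (H6013), bone (Hs27A), adrenal (HADF), skin (WS1), plus mammary HMF and breast cancer-associated Hs343T. Cancer lines are basal-like or mesenchymal-like triple-negative breast cancer. The paper counts as hits responses shifting over 3x the replicate standard deviation. The tissue of the other fibroblasts is not given here.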

System: MDAMB468
Test: relative JC-1 red fluorescence (viability) vs pre-drug, coculture with fibroblast (fraction); higher = more viable cancer cells
Procedure: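 JC-1 labelled TNBC cells cocultured 1:1 (1,500 cells each) with CellTrace Violet stained primary or stromal fibroblasts in 384-well plates in FluoroBrite medium, treated with one of 42 anticancer drugs at 0.1, 1, 10 or 100 uM. JC-1 red fluorescence (mitochondrial integrity in cancer cells only) was read by plate reader every 8 h for 72 h. Values are normalised to each well's pre-drug value. The stock of one drug was tenfold lower, so its dose labels may be too high.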

O=c1[nH]cc(F)c(=O)[nH]1 [Fluorouracil]
relative JC-1 red fluorescence
Conditions | 8 h | 16 h | 24 h | 32 h | 40 h | 48 h | 56 h | 64 h | 72 h
0.1 µM, coculture fibroblast: C12385 | 0.90361 ± 0.00033 | 0.8315 ± 0.0033 | 0.813 ± 0.015 | 0.778 ± 0.021 | 0.752 ± 0.0097 | 0.769 ± 0.0089 | 0.734 ± 0.011 | 0.713 ± 0.025 | 0.719 ± 0.019
0.1 µM, coculture fibroblast: H6013 | 0.8994 ± 0.0029 | 0.821 ± 0.011 | 0.806 ± 0.022 | 0.801 ± 0.025 | 0.778 ± 0.037 | 0.786 ± 0.037 | 0.75 ± 0.037 | 0.735 ± 0.039 | 0.682 ± 0.038
0.1 µM, coculture fibroblast: H6019 | 0.8344 ± 0.0021 | 0.7923 ± 0.0027 | 0.783 ± 0.015 | 0.726 ± 0.028 | 0.689 ± 0.032 | 0.671 ± 0.031 | 0.62 ± 0.034 | 0.59 ± 0.044 | 0.561 ± 0.057
0.1 µM, coculture fibroblast: H6076 | 0.9503 ± 0.0018 | 0.912 ± 0.022 | 0.879 ± 0.023 | 0.892 ± 0.021 | 0.817 ± 0.014 | 0.816 ± 0.02 | 0.78 ± 0.017 | 0.769 ± 0.023 | 0.824 ± 0.028
0.1 µM, coculture fibroblast: H6231 | 0.8297 ± 0.0023 | 0.9902 ± 0.0064 | 0.896 ± 0.011 | 0.836 ± 0.028 | 0.791 ± 0.023 | 0.763 ± 0.021 | 0.711 ± 0.018 | 0.674 ± 0.017 | 0.646 ± 0.017
0.1 µM, coculture fibroblast: HADF | 0.901 ± 0.029 | 0.82 ± 0.0098 | 0.7908 ± 0.0067 | 0.77976 ± 0.00061 | 0.7322 ± 0.0016 | 0.721 ± 0.0089 | 0.6784 ± 0.0029 | 0.656 ± 0.0074 | 0.618 ± 0.012
0.1 µM, coculture fibroblast: HCFa | 0.88594 ± 2.1e-06 | 0.82 ± 0.013 | 0.791 ± 0.011 | 0.7541 ± 0.0074 | 0.6909 ± 0.0054 | 0.6776 ± 0.0037 | 0.617 ± 0.008 | 0.575 ± 0.0055 | 0.5315 ± 0.0042
0.1 µM, coculture fibroblast: HCPF | 0.893 ± 0.042 | 0.916 ± 0.12 | 0.92 ± 0.061 | 0.898 ± 0.065 | 0.847 ± 0.066 | 0.831 ± 0.067 | 0.783 ± 0.075 | 0.775 ± 0.082 | 0.748 ± 0.094
0.1 µM, coculture fibroblast: HHSteC | 0.94 ± 0.022 | 0.847 ± 0.027 | 0.81 ± 0.019 | 0.764 ± 0.0087 | 0.71 ± 0.018 | 0.691 ± 0.036 | 0.615 ± 0.059 | 0.588 ± 0.064 | 0.542 ± 0.073
0.1 µM, coculture fibroblast: HMF | 0.8792 ± 0.0037 | 0.964 ± 0.035 | 0.90515 ± 0.00032 | 0.905 ± 0.029 | 0.844 ± 0.025 | 0.83 ± 0.03 | 0.793 ± 0.043 | 0.782 ± 0.051 | 0.777 ± 0.047
0.1 µM, coculture fibroblast: HPFa | 0.93 ± 0.013 | 0.9068 ± 0.0085 | 0.838 ± 0.022 | 0.789 ± 0.028 | 0.741 ± 0.032 | 0.729 ± 0.051 | 0.659 ± 0.05 | 0.624 ± 0.052 | 0.549 ± 0.044
0.1 µM, coculture fibroblast: HUF | 0.9119 ± 0.0054 | 0.8237 ± 0.0046 | 0.751 ± 0.00071 | 0.68 ± 0.0081 | 0.626 ± 0.0095 | 0.5931 ± 0.0038 | 0.549 ± 0.0078 | 0.514 ± 0.011 | 0.49 ± 0.0063
0.1 µM, coculture fibroblast: Hs5 | 0.743 ± 0.048 | 0.952 ± 0.037 | 0.875 ± 0.059 | 0.857 ± 0.073 | 0.779 ± 0.078 | 0.743 ± 0.087 | 0.703 ± 0.095 | 0.672 ± 0.1 | 0.688 ± 0.1
0.1 µM, coculture fibroblast: Hs27A | 0.85863 ± 0.00044 | 0.7805 ± 0.0021 | 0.756 ± 0.0078 | 0.762 ± 0.022 | 0.711 ± 0.032 | 0.711 ± 0.038 | 0.672 ± 0.043 | 0.646 ± 0.049 | 0.603 ± 0.051
0.1 µM, coculture fibroblast: Hs343T | 0.8959 ± 0.0013 | 0.9531 ± 0.0038 | 0.903 ± 0.026 | 0.875 ± 0.024 | 0.803 ± 0.028 | 0.787 ± 0.027 | 0.729 ± 0.024 | 0.712 ± 0.026 | 0.691 ± 0.013
0.1 µM, coculture fibroblast: WS1 | 0.8834 ± 0.0012 | 0.773 ± 0.022 | 0.736 ± 0.023 | 0.663 ± 0.019 | 0.615 ± 0.024 | 0.588 ± 0.027 | 0.561 ± 0.015 | 0.535 ± 0.011 | 0.526 ± 0.0083
1 µM, coculture fibroblast: C12385 | 0.8701 ± 0.0082 | 0.7967 ± 0.0025 | 0.786 ± 0.011 | 0.7319 ± 0.0018 | 0.695 ± 0.0088 | 0.676 ± 0.011 | 0.645 ± 0.021 | 0.621 ± 0.029 | 0.618 ± 0.025
1 µM, coculture fibroblast: H6013 | 0.873 ± 0.014 | 0.8638 ± 0.0029 | 0.8195 ± 0.0047 | 0.795 ± 0.027 | 0.778 ± 0.024 | 0.79 ± 0.028 | 0.761 ± 0.034 | 0.757 ± 0.034 | 0.7 ± 0.037
1 µM, coculture fibroblast: H6019 | 0.811 ± 0.015 | 0.783 ± 0.052 | 0.759 ± 0.055 | 0.704 ± 0.068 | 0.666 ± 0.064 | 0.646 ± 0.075 | 0.601 ± 0.075 | 0.565 ± 0.078 | 0.538 ± 0.082
1 µM, coculture fibroblast: H6076 | 0.936 ± 0.017 | 0.871 ± 0.037 | 0.832 ± 0.034 | 0.835 ± 0.033 | 0.769 ± 0.023 | 0.763 ± 0.027 | 0.717 ± 0.035 | 0.713 ± 0.03 | 0.749 ± 0.031
1 µM, coculture fibroblast: H6231 | 0.8383 ± 0.0074 | 0.9177 ± 0.0048 | 0.8201 ± 0.0014 | 0.8073 ± 0.0078 | 0.754 ± 0.0094 | 0.728 ± 0.019 | 0.672 ± 0.023 | 0.656 ± 0.025 | 0.634 ± 0.032
1 µM, coculture fibroblast: HADF | 0.9151 ± 0.0077 | 0.8387 ± 0.0082 | 0.7995 ± 0.0053 | 0.79 ± 0.017 | 0.755 ± 0.026 | 0.756 ± 0.018 | 0.71 ± 0.009 | 0.709 ± 0.017 | 0.666 ± 0.017
1 µM, coculture fibroblast: HCFa | 0.846 ± 0.0077 | 0.857 ± 0.04 | 0.822 ± 0.07 | 0.812 ± 0.09 | 0.764 ± 0.092 | 0.758 ± 0.091 | 0.721 ± 0.089 | 0.687 ± 0.087 | 0.632 ± 0.094
1 µM, coculture fibroblast: HCPF | 0.881 ± 0.018 | 0.9035 ± 0.009 | 0.841 ± 0.025 | 0.831 ± 0.032 | 0.758 ± 0.021 | 0.734 ± 0.018 | 0.68 ± 0.021 | 0.665 ± 0.018 | 0.651 ± 0.032
1 µM, coculture fibroblast: HHSteC | 0.9308 ± 0.0075 | 0.856 ± 0.029 | 0.803 ± 0.032 | 0.78 ± 0.056 | 0.732 ± 0.063 | 0.726 ± 0.078 | 0.658 ± 0.058 | 0.626 ± 0.07 | 0.571 ± 0.065
1 µM, coculture fibroblast: HMF | 0.8561 ± 0.0082 | 0.911 ± 0.037 | 0.863 ± 0.037 | 0.849 ± 0.041 | 0.786 ± 0.066 | 0.772 ± 0.066 | 0.726 ± 0.063 | 0.695 ± 0.059 | 0.681 ± 0.049
1 µM, coculture fibroblast: HPFa | 0.932 ± 0.011 | 0.893 ± 0.021 | 0.845 ± 0.011 | 0.7928 ± 0.007 | 0.7571 ± 0.0061 | 0.748 ± 0.0086 | 0.685 ± 0.013 | 0.646 ± 0.02 | 0.571 ± 0.019
1 µM, coculture fibroblast: HUF | 0.921 ± 0.014 | 0.839 ± 0.019 | 0.786 ± 0.029 | 0.722 ± 0.044 | 0.672 ± 0.044 | 0.652 ± 0.06 | 0.607 ± 0.064 | 0.588 ± 0.069 | 0.566 ± 0.069
1 µM, coculture fibroblast: Hs5 | 0.932 ± 0.049 | 0.865 ± 0.0091 | 0.831 ± 0.029 | 0.809 ± 0.0086 | 0.739 ± 0.018 | 0.713 ± 0.017 | 0.669 ± 0.0082 | 0.641 ± 0.012 | 0.6689 ± 0.0042
1 µM, coculture fibroblast: Hs27A | 0.862 ± 0.018 | 0.801 ± 0.012 | 0.759 ± 0.008 | 0.7498 ± 0.0047 | 0.6952 ± 0.003 | 0.6852 ± 0.004 | 0.6315 ± 0.0049 | 0.6061 ± 0.0027 | 0.5515 ± 0.001
1 µM, coculture fibroblast: Hs343T | 0.87274 ± 0.0002 | 0.898 ± 0.013 | 0.818 ± 0.022 | 0.79 ± 0.023 | 0.716 ± 0.036 | 0.691 ± 0.042 | 0.658 ± 0.038 | 0.642 ± 0.032 | 0.627 ± 0.029
1 µM, coculture fibroblast: WS1 | 0.858 ± 0.029 | 0.77 ± 0.045 | 0.735 ± 0.073 | 0.665 ± 0.085 | 0.619 ± 0.088 | 0.587 ± 0.092 | 0.559 ± 0.086 | 0.522 ± 0.091 | 0.513 ± 0.093
